Experimental data taken from patent US9134318B2, “Detection of oxidized polypeptides” (Purdue Research Foundation, priority 2009, dated 2015).

System: carbonylated plasma proteins
Experiment: iTRAQ and MALDI/TOF/TOF quantitative comparison of avidin-selected carbonylated proteins, breast cancer patients vs controls (Table 8)
Design: species or system Homo sapiens
Conditions: avidin-selected carbonylated protein in plasma, breast cancer patient vs matched control, iTRAQ; repeated lines of a protein = different donors; negative = lower in cancer

Molecule | Breast cancer/control (fold change)
Microtubule-associated protein 4 (protein, UniProt P27816 2-1152, looked up) Microtubule-associated …: ADLSLADALTEPSPDIEGEIKRDFIATLEAEAFDDVVGETVGKTDYIPLLDVDEKTGNSESKKKPCSETSQIEDTPSSKPTLLANGGHGVEGSDTTGSPTEFLEEKMAYQEYPNSQNWPEDTNFCFQPEQVVDPIQTDPFKMYHDDDLADLVFPSSATADTSIFAGQNDPLKDSYGMSPCNTAVVPQGWSVEALNSPHSESFVSPEAVAEPPQPTAVPLELAKEIEMASEERPPAQALEIMMGLKTTDMAPSKETEMALAKDMALATKTEVALAKDMESPTKLDVTLAKDMQPSMESDMALVKDMELPTEKEVALVKDVRWPTETDVSSAKNVVLPTETEVAPAKDVTLLKETERASPIKMDLAPSKDMGPPKENKKETERASPIKMDLAPSKDMGPPKENKIVPAKDLVLLSEIEVAQANDIISSTEISSAEKVALSSETEVALARDMTLPPETNVILTKDKALPLEAEVAPVKDMAQLPETEIAPAKDVAPSTVKEVGLLKDMSPLSETEMALGKDVTPPPETEVVLIKNVCLPPEMEVALTEDQVPALKTEAPLAKDGVLTLANNVTPAKDVPPLSETEATPVPIKDMEIAQTQKGISEDSHLESLQDVGQSAAPTFMISPETVTGTGKKCSLPAEEDSVLEKLGERKPCNSQPSELSSETSGIARPEEGRPVVSGTGNDITTPPNKELPPSPEKKTKPLATTQPAKTSTSKAKTQPTSLPKQPAPTTIGGLNKKPMSLASGLVPAAPPKRPAVASARPSILPSKDVKPKPIADAKAPEKRASPSKPASAPASRSGSKSTQTVAKTTTAAAVASTGPSSRSPSTLLPKKPTAIKTEGKPAEVKKMTAKSVPADLSRPKSTSTSSMKKTTTLSGTAPAAGVVPSRVKATPMPSRPSTTPFIDKKPTSAKPSSTTPRLSRLATNTSAPDLKNVRSKVGSTENIKHQPGGGRAKVEKKTEAAATTRKPESNAVTKTAGPIASAQKQPAGKVQIVSKKVSYSHIQSKCGSKDNIKHVPGGGNVQIQNKKVDISKVSSKCGSKANIKHKPGGGDVKIESQKLNFKEKAQAKVGSLDNVGHLPAGGAVKTEGGGSEAPLCPGPPAGEEPAISEAAPEAGAPTSASGLNGHPTLSGGGDQREAQTLDSQIQETSI | −3.0
Origin recognition complex subunit 4 (protein, UniProt O43929 1-436, looked up) Origin recognition complex …: MSSRKSKSNSLIHTECLSQVQRILRERFCRQSPHSNLFGVQVQYKHLSELLKRTALHGESNSVLIIGPRGSGKTMLINHALKELMEIEEVSENVLQVHLNGLLQINDKIALKEITRQLNLENVVGDKVFGSFAENLSFLLEALKKGDRTSSCPVIFILDEFDLFAHHKNQTLLYNLFDISQSAQTPIAVIGLTCRLDILELLEKRVKSRFSHRQIHLMNSFGFPQYVKIFKEQLSLPAEFPDKVFAEKWNENVQYLSEDRSVQEVLQKHFNISKNLRSLHMLLMLALNRVTASHPFMTAVDLMEASQLCSMDSKANIVHGLSVLEICLIIAMKHLNDIYEEEPFNFQMVYNEFQKFVQRKAHSVYNFEKPVVMKAFEHLQQLELIKPMERTSGNSQREYQLMKLLLDNTQIMNALQKYPNCPTDVRQWATSSLSWL | −1.6
Peroxiredoxin-2 (protein, UniProt P32119 2-198, looked up) Peroxiredoxin-2: ASGNARIGKPAPDFKATAVVDGAFKEVKLSDYKGKYVVLFFYPLDFTFVCPTEIIAFSNRAEDFRKLGCEVLGVSVDSQFTHLAWINTPRKEGGLGPLNIPLLADVTRRLSEDYGVLKTDEGIAYRGLFIIDGKGVLRQITVNDLPVGRSVDEALRLVQAFQYTDEHGEVCPAGWKPGSDTIKPNVDDSKEYFSKHN | −9.2
Serum paraoxonase/arylesterase 1 (protein, UniProt P27169 2-355, looked up) Serum …: AKLIALTLLGMGLALFRNHQSSYQTRLNALREVQPVELPNCNLVKGIETGSEDLEILPNGLAFISSGLKYPGIKSFNPNSPGKILLMDLNEEDPTVLELGITGSKFDVSSFNPHGISTFTDEDNAMYLLVVNHPDAKSTVELFKFQEEEKSLLHLKTIRHKLLPNLNDIVAVGPEHFYGTNDHYFLDPYLQSWEMYLGLAWSYVVYYSPSEVRVVAEGFDFANGINISPDGKYVYIAELLAHKIHVYEKHANWTLTPLKSLDFNTLVDNISVDPETGDLWVGCHPNGMKIFFYDSENPPASEVLRIQNILTEEPKVTQVYAENGTVLQGSTVASVYKGKLLIGTVFHKALYCEL | 1.6
Sorting nexin-13 (protein, UniProt Q9Y5W8 1-968, looked up) Sorting nexin-13: MLTEASLSIWGWGSLGIVLFLITFGPFVIFYLTFYILCFVGGGLVVTLLFGKTNSEKYLEQCEHSFLPPTSPGVPKCLEEMKREARTIKIDRRLTGANIIDEPLQQVIQFSLRDYVQYWYYTLSDDESFLLEIRQTLQNALIQFATRSKEIDWQPYFTTRIVDDFGTHLRVFRKAQQKITEKDDQVKGTAEDLVDTFFEVEVEMEKEVCRDLVCTSPKDEEGFLRDLCEVLLYLLLPPGDFQNKIMRYFVREILARGILLPLINQLSDPDYINQYVIWMIRDSNCNYEAFMNIIKLSDNIGELEAVRDKAAEELQYLRSLDTAGDDINTIKNQINSLLFVKKVCDSRIQRLQSGKEINTVKLAANFGKLCTVPLDSILVDNVALQFFMDYMQQTGGQAHLFFWMTVEGYRVTAQQQLEVLLSRQRDGKHQTNQTKGLLRAAAVGIYEQYLSEKASPRVTVDDYLVAKLADTLNHEDPTPEIFDDIQRKVYELMLRDERFYPSFRQNALYVRMLAELDMLKDPSFRGSDDGDGESFNGSPTGSINLSLDDLSNVSSDDSVQLHAYISDTVYADYDPYAVAGVCNDHGKTYALYAITVHRRNLNSEEMWKTYRRYSDFHDFHMRITEQFESLSSILKLPGKKTFNNMDRDFLEKRKKDLNAYLQLLLAPEMMKASPALAHYVYDFLENKAYSKGKGDFARKMDTFVNPLRNSMRNVSNAVKSLPDSLAEGMTKMSDNMGKMSERLGQDIKQSFFKVPPLIPKTDSDPEHRRVSAQLDDNVDDNIPLRVMLLLMDEVFDLKERNQWLRRNIKNLLQQLIRATYGDTINRKIVDHVDWMTSPEQVADSVKRFRDAFWPNGILAEAVPCRDKSIRMRTRVAGKTKLLAIMPDELKHIIGAETTRKGILRVFEMFQHNQLNRRMVYVFLEGFLETLFPQYKFRELFNKLHSRSKQMQKYKQKLQTTQAPSLQKR | −3.4
U6 snRNA-associated Sm-like protein LSm2 (protein, UniProt Q9Y333 1-95, looked up) U6 snRNA-associated Sm-like …: MLFYSFFKSLVGKDVVVELKNDLSICGTLHSVDQYLNIKLTDISVTDPEKYPHMLSVKNCFIRGSVVRYVQLPADEVDTQLLQDAARKEALQQKQ | −3.6
